Reference: PubChem BioAssay AID493014 (National Center for Advancing Translational Sciences (NCATS), 2011)
The list shows a part of the results. Further columns of the screen follow, without active or inactive calls. Compounds called inactive in the main read-out are mostly missing here. Potencies come from curve fits of mixed quality, noted in brackets.

Test: qHTS Assay to Find Inhibitors of Chronic Active B-Cell Receptor Signaling
Conditions: ABC-DLBCL IkBa-CBG/CBR reporter, luminescence ratio (green luciferase fused to IkBa over red control in TMD8 lymphoma cells), 4 h
In short: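 TMD8 human ABC-DLBCL cells with doxycycline-inducible IκBα–green luciferase fusion and unfused red luciferase, in 0.5% FBS medium; compounds up to 46 uM, 4 h at 37C. Green/red luminescence ratio, filter-overlap corrected, fitted to concentration-response curves.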

[1] = measured here: CBR red luminescence, cell number
[2] = measured here: IkBa-CBG green luminescence

Structure (SMILES): Cc1ccc(SCC(=O)Nc2ccc(N3CCOCC3)cc2)cc1C
- AC50 [1]: 1.84 µM [falling, partial curve, poor fit]

Structure (SMILES): Cc1ccc(N/C=C/c2onc(C)c2[N+](=O)[O-])cc1
- AC50 [1]: 0.112 µM [rising, full curve, poor fit]

Structure (SMILES): CCC1(C)CC(c2nc(-c3ccc(OC)cc3)cs2)CCS1 (configuration not stated)
- AC50 [1]: 20.6 µM [rising, single point]

Structure (SMILES): C=CCNC(=S)Nc1ccc(N(C)C)cc1
- AC50 [1]: 5.62 µM [rising, single point]

Structure (SMILES): Cc1cc(F)ccc1N1CCC(N2CCN(C(C)C)C(CCO)C2)CC1 (configuration not stated)
- AC50 [1]: 10 µM [rising, partial curve, poor fit]

Structure (SMILES): Cc1cc(C(=O)NCC(=O)OC(C)C(=O)N2CCOCC2)ccc1[N+](=O)[O-] (configuration not stated)
- AC50 [1]: 29.1 µM [rising, partial curve, poor fit]

Structure (SMILES): O=C(Nc1cc2c(ccc3ccccc32)oc1=O)C1CCCCC1
- AC50 [1]: 29.1 µM [rising, single point]

Structure (SMILES): O=c1oc2ccccc2c(O)c1/C=N/c1ncccn1
- AC50 [1]: 2.82 µM [falling, partial curve, poor fit]

Structure (SMILES): CSC(=O)NC(=O)NC(=O)c1ccc([N+](=O)[O-])cc1
- AC50 [1]: 11.2 µM [rising, partial curve, poor fit]

Structure (SMILES): CCc1ccc2[nH]c(=O)c(CN(CCN(C)C)C(=S)NCc3ccco3)cc2c1
- AC50 [1]: 31.6 µM [falling, single point]

Structure (SMILES): CCN(CC)S(=O)(=O)c1ccc(Cl)c(C(=O)Nc2nnc(C)s2)c1
- AC50 [1]: 11.2 µM [falling, partial curve, poor fit]

Structure (SMILES): CN(C)c1ccc(C(CNC(=O)COc2ccc(Cl)cc2)N2CCCC2)cc1 (configuration not stated)
- AC50 [1]: 35.5 µM [falling, single point]

Structure (SMILES): COc1ccc(CC(=O)Nc2ccc(-c3nc4cc(C)ccc4o3)c(O)c2)cc1OC
- AC50 [1]: 2.31 µM [rising, partial curve, poor fit]

Structure (SMILES): Cn1c(SCC(=O)NCCc2ccccc2)ncc(C(=O)Nc2ccc(F)cc2)c1=O
- AC50 [1]: 0.517 µM [rising, full curve, poor fit]

Structure (SMILES): Cn1c(CSc2nc3ccccc3s2)n[nH]c1=S
- AC50 [1]: 2.31 µM [rising, partial curve]

Structure (SMILES): CCN1CCN(c2ccc(NC(=O)c3ccc(OC)c(S(=O)(=O)N4CCCC4)c3)cc2)CC1
- AC50 [1]: 18.4 µM [rising, single point]

Structure (SMILES): COc1cccc(C2NC(=O)NC(C)=C2C(=O)OCC2CCCCC2)c1 (configuration not stated)
- AC50 [1]: 25.1 µM [rising, single point]

Structure (SMILES): CCc1ccc(NC(=O)CSc2nnc(-c3ccco3)o2)cc1
- AC50 [1]: 3.55 µM [rising, single point]

Structure (SMILES): O=C(Nc1cccc(F)c1)OC(CN1CCCCC1)C(F)(F)F (configuration not stated)
- AC50 [1]: 35.5 µM [falling, single point]

Structure (SMILES): CC(C)CCOCC(=O)Oc1ccccc1C(=O)O
- AC50 [1]: 22.4 µM [rising, partial curve, poor fit]

Structure (SMILES): Cc1cccc(NS(=O)(=O)c2cccc(C(=O)NNC(=O)c3ccccc3O)c2)c1
- AC50 [1]: 18.4 µM [falling, partial curve]

Structure (SMILES): CC(C)c1nc2sc3c(=O)[nH]c(=S)[nH]c3c2c2c1CCC2
- AC50 [1]: 29.1 µM [rising, single point]

Structure (SMILES): O=C(/C=C/Nc1ccc(S(=O)(=O)Nc2cnc3ccccc3n2)cc1)c1cccnc1
- AC50 [1]: 35.5 µM [rising, single point]

Structure (SMILES): CCCN(CC(=O)Nc1ccccc1C)C(=O)CCCNC(=O)c1ccc(Cl)cc1
- AC50 [1]: 1.46 µM [rising, full curve, poor fit]

Structure (SMILES): COc1cc(/C=N/Nc2nc(C)cc(=O)[nH]2)cc(OC)c1O
- AC50 [1]: 35.5 µM [falling, single point]
- AC50 [2]: 3.98 µM [rising, partial curve, poor fit]

Structure (SMILES): CCS(=O)(=O)c1ncc(Cl)c(C(=O)Nc2ccc(S(=O)(=O)N3CCC(C)CC3)cc2)n1
- AC50 [1]: 11.2 µM [falling, partial curve, poor fit]

Structure (SMILES): Cc1ccc(-n2c(C)cc(/C=c3/sc4nc5ccccc5n4c3=O)c2C)cc1
- AC50 [1]: 16.4 µM [rising, partial curve]

Structure (SMILES): CC(C)(C)NS(=O)(=O)c1ccc(NC(=O)C2CCCCC2)cc1
- AC50 [1]: 35.5 µM [rising, partial curve, poor fit]

Structure (SMILES): Cc1[nH]c2ccccc2c1C(=O)COC(=O)CCS(=O)(=O)c1ccccc1Cl
- AC50 [1]: 20.6 µM [falling, single point]

Structure (SMILES): Cc1ccc(-c2onc3ccc(C(=O)/C=C/N(C)C)cc23)cc1
- AC50 [1]: 14.1 µM [rising, single point]

Structure (SMILES): Cc1ccc(-c2nc3ncccn3c2Nc2ccc3c(c2)OCCO3)o1
- AC50 [1]: 0.206 µM [rising, full curve, poor fit]

Structure (SMILES): COc1ccc(C(=O)COC(=O)CCNS(=O)(=O)c2ccccc2)c(OC)c1
- AC50 [1]: 25.9 µM [rising, partial curve]

Structure (SMILES): C=CCSc1nc(=O)n2ccc(C)cc2n1
- AC50 [1]: 11.2 µM [rising, partial curve]

Structure (SMILES): O=C(CSC1=NC(=O)C(c2ccccc2)C(=O)N1)Nc1ccccc1[N+](=O)[O-] (configuration not stated)
- AC50 [1]: 6.31 µM [rising, single point]

Structure (SMILES): COC(=O)c1ccc(/C=N\n2c(C)nnc2C)cc1
- AC50 [2]: 32.6 µM [falling, partial curve, poor fit]

Structure (SMILES): CCOC(=O)Cc1cnc(NC(=O)c2ccccc2)s1
- AC50 [1]: 7.94 µM [falling, partial curve]

Structure (SMILES): O=C(c1cc(-c2ccc(F)cc2)on1)N1CCOCC1
- AC50 [1]: 11.2 µM [falling, single point]

Structure (SMILES): O=C(CN1C(=O)c2ccccc2C1=O)Nc1ccc(S(=O)(=O)N2CCOCC2)cc1
- AC50 [1]: 22.4 µM [rising, single point]

Structure (SMILES): CCc1ccc(C(=O)Nc2nc(C)cs2)s1
- AC50 [1]: 35.5 µM [falling, single point]

Structure (SMILES): COc1ccccc1/C=N/NC(=O)CN(C1=NS(=O)(=O)c2ccccc21)c1ccccc1
- AC50 [1]: 25.9 µM [falling, single point]

Structure (SMILES): N/C(=N\OC(=O)CCC1CCCCC1)c1cccc([N+](=O)[O-])c1
- AC50 [1]: 11.2 µM [rising, single point]
